Measurements as given in patent EP0707593B1, “ORALLY ADMINISTERABLE ESTERS OF 14 ALPHA,15 ALPHA-METHYLENE-OESTRADIOL WITH AN OESTROGENIC ACTION” (Jenapharm GmbH & Co. KG, priority 1993, dated 1995).
For at least one compound, name, drawing or mass did not settle the structure.

Test system: adulte ovarektomierte Ratten
Test: Uterus wet weight after single oral application in adult ovariectomized rats (oral estrogenic effect, dose-response analysis)
Format: in vivo
Conditions: steepness of the dose-response curve of uterus wet weight after single oral application, Abb. 2
Excerpt: Als Vergleiche dienten Ethinylestradiol (EE) und 14α,15α-Methylen-estra-1,3,5(10)-trien-3,17β-diol (Code: J824) Die Ermittlung der Uterusfeuchtmassen nach einmaliger oraler Substanzapplikation sowie die Dosis-Wirkungsanalysen der Substanzen wurde zur Bemessung einer Estrogenwirkung herangezogen.
Sowohl Uterus als auch Vagina zeigen bei ovarektomierten Ratten eine von der Estrogendosis abhängige Gewichtszunahme. Diese ist auf eine Proliferation der Schleimhäute, erhöhte Proteinsynthese, aber auch auf eine Wassereinlagerung zurückzuführen. Für die der Erfindung zu Grunde liegenden Untersuchungen wurden adulte ovarektomierte Ratten eingesetzt. In einer kontrollierten Studie wurden Ester des 14α,15α-Methylen-estradiols auf estrogene Wirkung bei oraler Applikation gegen Ethinylestradiol(EE) und 14α,15α-Methylen-estradiol (J 824) geprüft. Die angegebenen Dosierungen beziehen sich auf den Steroidkern der Moleküle. Die Testsubstanzen wurden einmalig oral appliziert. Als Parameter einer Estrogenwirkung wurden am 4. Tag des Versuches die Uterusgewichte ermittelt (Feuchtgewichte).
Weibliche Ratten [Stamm: BOR:WISW (SPF/Cpb)], Körpermasse zu Versuchsbeginn 200 - 240 g wurden ovarektomiert und 10 Tage nach diesem Eingriff randomisiert den Versuchsgruppen zugeordnet. Dann erfolgte die einmalige orale Applikation (Tag 1) der Prüfsubstanzen. Am 4. […]

C#C[C@]1(O)CC[C@H]2[C@@H]3CCc4cc(O)ccc4[C@H]3CC[C@@]21C [Ethinylestradiol]
Verlauf der Dosis-Wirkungskurve: flachere Verlauf
